Test results reported in patent US20030104965A1, “Laundry sanitizer containing partially halogenated hydantoins” (Lonza Inc., priority 2001, published 2003).

Experiments:
[1] = Fabric damage test with bleach powder bundled in swatch; conditions: equal chlorine basis (50 ppm chlorine in 64 liter wash), 45° C. water 30 minutes, 75° C. drying
[2] = as above; conditions: equal chlorine basis (50 ppm chlorine in 64 liter wash), 45° C. water 30 minutes, 75° C. drying; remark: listed apart in the source

Compound: O=c1n(Cl)c(=O)n(Cl)c(=O)n1Cl [TCCA, trichloroisocyanuric acid]
- cycles until holes in silk swatch [1]: 7 cycles
- cycles until holes in wool swatch [2]: 4 cycles

Compound: O=c1nc([O-])n(Cl)c(=O)n1Cl.[Na+] [DCCA, sodium dichloroisocyanurate]
- cycles until holes in silk swatch [1]: 12 cycles
- cycles until holes in wool swatch [2]: 7 cycles

Compound: monochloro-5,5-dimethyl hydantoin [MCDMH]
- cycles until holes in silk swatch [1]: > 23 cycles
- cycles until holes in wool swatch [2]: > 23 cycles
